The values that follow come from publication PMC3379994, “Comprehensive Analysis of Interactions between the Src-Associated Protein in Mitosis of 68 kDa and the Human Src-Homology 3 Proteome” (PLoS ONE, 2012).

No constants are given. Whether binding was seen depends on the method and setting. For some of these results: In cells and extracts the contact can be indirect. Some binding calls cover weakened binding; strength is not graded here. For some of these results: Sequences can lack the tags named with a protein.

The target of test [1] is His-tagged Sam68 (Src-associated in mitosis, 68 kDa) (human (cDNA from HEK293T cells)) (UniProt Q07666). The test can be described thus: phage display bio-panning; 10 µg His-Sam68 or GST-Sam68 immobilised on magnetic M-270 epoxy beads; human SH3 phage library (296 domains as pVIII fusions), 1 h; 10 washes with PBS + 0.05 % Tween-20; elution at pH 2.2; 162 clones sequenced; only the target purified.

For test [2] the target is unchanged. The test can be described thus: ELISA; only the target purified. In general terms: ELISA stands for enzyme-linked immunosorbent assay.
Test [3] addresses CFP-tagged Sam68 (human (cDNA from HEK293T cells)) (UniProt Q07666). The test can be described thus: FRET or BRET; flow-cytometry-based FRET in living 293T cells co-transfected with CFP- and YFP-tagged proteins, analysed 48 h after transfection.

B1: SH3 domain #3 from Intersectin 2, displayed on M13 phage (domain or fragment, UniProt Q9NZM3 981-1039)
chain: SVGEEYIALYPYSSVEPGDLTFTEGEEILVTQKDGEWWTGSIGDRSGIFPSNYVKPKDQ
As to B1, the binding result in test [1] and in test [2] was “binds” each time.

B2: YFP-tagged SH3 domain #3 of Intersectin 2 (domain or fragment, UniProt Q9NZM3 981-1039)
chain: SVGEEYIALYPYSSVEPGDLTFTEGEEILVTQKDGEWWTGSIGDRSGIFPSNYVKPKDQ
Regarding B2, the binding entry in test [3] is reported as “binds”.

B3: SH3 domain from Osteoclast stimulating factor 1, displayed on M13 phage (domain or fragment, UniProt Q92882 12-71)
chain: GQVKVFRALYTFEPRTPDELYFEEGDIIYITDMSDTNWWKGTSKGRTGLIPSNYVAEQAE
Turning to B3, the binding entry in test [1] and in test [2] was “binds” each time.

B4: YFP-tagged SH3 domain of osteoclast stimulating factor 1 (domain or fragment, UniProt Q92882 12-71)
chain: GQVKVFRALYTFEPRTPDELYFEEGDIIYITDMSDTNWWKGTSKGRTGLIPSNYVAEQAE
As to B4, the binding result in test [3] is on record as “binds”.

B5: SH3 domain from Nephrocystin, displayed on M13 phage (domain or fragment, UniProt O15259 152-212)
chain: STGEEYIAVGDFTAQQVGDLTFKKGEILLVIEKKPDGWWIAKDAKGNEGLVPRTYLEPYSE
For the molecule B5, in test [1], the binding result is on record as “binds”.
